Experimental data as given in PMC9849267.
No constants are given. Whether binding was seen depends on the method and setting. Binding seen in cells or lysates may run through a third protein. Some binding calls cover weakened binding; strength is not graded here. For some of these results: Tags and fused reporters may be left off the sequences shown. Blank lines part the entries; values can stand above or below the molecule they belong to.

Protein sequences, listed by entry. Tags and fused reporters are not part of them.
UniProt Q3TKT4: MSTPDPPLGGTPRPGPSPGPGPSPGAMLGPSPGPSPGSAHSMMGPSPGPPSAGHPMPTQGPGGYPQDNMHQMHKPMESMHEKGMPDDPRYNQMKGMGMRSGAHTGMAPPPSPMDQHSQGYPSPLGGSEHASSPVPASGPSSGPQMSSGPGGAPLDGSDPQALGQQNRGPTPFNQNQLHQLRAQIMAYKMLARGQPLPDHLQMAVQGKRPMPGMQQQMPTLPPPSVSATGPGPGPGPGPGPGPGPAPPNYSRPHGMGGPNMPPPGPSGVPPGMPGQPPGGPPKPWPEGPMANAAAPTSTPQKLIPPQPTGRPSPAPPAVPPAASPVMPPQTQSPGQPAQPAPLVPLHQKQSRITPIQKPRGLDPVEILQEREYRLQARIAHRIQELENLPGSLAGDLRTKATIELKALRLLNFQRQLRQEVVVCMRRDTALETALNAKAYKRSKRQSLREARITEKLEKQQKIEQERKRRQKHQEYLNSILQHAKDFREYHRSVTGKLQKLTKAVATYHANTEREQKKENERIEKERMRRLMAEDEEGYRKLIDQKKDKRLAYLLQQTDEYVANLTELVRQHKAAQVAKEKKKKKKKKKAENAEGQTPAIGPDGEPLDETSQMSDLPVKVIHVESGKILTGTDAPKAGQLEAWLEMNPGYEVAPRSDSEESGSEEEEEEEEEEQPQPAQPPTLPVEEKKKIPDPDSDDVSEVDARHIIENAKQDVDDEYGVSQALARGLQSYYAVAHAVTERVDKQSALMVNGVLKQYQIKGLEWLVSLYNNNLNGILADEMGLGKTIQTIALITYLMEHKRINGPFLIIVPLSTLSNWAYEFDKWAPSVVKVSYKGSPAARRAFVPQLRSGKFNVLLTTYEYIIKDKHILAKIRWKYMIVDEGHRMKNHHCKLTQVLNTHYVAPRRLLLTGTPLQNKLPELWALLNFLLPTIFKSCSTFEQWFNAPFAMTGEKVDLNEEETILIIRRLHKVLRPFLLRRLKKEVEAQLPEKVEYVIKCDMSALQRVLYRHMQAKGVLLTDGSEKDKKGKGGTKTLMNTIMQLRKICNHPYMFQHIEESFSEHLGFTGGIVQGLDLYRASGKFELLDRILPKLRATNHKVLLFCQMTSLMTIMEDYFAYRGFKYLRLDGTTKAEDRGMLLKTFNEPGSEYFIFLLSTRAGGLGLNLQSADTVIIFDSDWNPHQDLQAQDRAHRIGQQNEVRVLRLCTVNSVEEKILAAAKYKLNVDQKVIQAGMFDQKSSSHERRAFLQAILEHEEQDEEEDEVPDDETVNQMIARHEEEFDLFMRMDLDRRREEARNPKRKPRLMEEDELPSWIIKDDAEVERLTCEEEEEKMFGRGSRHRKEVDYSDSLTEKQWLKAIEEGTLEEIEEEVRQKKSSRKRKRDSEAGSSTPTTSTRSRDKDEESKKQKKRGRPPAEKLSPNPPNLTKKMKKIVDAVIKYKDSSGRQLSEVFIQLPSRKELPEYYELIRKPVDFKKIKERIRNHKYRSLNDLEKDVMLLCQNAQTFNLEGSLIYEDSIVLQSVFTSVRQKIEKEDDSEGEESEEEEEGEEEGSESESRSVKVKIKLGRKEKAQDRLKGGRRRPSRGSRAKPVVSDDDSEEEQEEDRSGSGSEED
UniProt Q6P9Z1: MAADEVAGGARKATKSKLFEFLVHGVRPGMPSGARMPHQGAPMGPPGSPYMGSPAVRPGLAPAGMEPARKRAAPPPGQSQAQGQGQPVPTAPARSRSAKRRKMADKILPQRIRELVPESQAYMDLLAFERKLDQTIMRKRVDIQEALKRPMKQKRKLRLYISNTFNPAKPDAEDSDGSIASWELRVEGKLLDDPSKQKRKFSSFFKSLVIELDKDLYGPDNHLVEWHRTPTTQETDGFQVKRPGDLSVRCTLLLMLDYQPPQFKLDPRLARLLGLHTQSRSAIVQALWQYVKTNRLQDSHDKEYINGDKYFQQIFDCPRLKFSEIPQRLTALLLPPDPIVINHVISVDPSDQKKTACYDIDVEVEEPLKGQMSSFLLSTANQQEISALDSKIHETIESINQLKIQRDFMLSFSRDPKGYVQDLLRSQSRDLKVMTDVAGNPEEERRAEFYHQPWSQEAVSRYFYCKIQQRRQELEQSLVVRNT
UniProt Q6STE5: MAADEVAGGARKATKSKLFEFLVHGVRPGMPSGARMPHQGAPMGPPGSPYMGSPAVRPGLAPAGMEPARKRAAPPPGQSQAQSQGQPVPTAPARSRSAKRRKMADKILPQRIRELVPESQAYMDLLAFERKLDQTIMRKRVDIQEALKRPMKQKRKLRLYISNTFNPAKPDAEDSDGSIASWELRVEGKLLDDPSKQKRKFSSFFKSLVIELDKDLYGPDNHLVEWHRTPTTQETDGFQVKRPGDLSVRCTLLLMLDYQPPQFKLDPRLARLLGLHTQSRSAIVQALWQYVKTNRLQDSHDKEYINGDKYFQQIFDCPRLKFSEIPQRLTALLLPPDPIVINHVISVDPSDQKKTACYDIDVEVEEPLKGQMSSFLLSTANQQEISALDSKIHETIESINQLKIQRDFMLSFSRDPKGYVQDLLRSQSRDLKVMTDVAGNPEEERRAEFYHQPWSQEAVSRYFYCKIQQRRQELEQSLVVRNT
UniProt P35582: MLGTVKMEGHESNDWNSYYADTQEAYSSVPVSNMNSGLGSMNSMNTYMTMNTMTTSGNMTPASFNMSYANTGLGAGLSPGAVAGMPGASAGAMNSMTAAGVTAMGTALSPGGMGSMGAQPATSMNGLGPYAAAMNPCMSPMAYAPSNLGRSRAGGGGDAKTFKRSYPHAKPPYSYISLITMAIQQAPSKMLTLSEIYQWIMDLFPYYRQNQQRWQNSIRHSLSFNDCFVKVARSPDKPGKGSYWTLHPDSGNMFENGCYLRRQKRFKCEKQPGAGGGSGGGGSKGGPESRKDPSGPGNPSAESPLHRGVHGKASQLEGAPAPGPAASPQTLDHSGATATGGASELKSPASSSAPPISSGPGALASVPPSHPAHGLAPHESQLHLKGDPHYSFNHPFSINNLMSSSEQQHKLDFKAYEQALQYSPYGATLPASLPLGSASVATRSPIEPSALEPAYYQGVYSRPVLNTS
UniProt P51532: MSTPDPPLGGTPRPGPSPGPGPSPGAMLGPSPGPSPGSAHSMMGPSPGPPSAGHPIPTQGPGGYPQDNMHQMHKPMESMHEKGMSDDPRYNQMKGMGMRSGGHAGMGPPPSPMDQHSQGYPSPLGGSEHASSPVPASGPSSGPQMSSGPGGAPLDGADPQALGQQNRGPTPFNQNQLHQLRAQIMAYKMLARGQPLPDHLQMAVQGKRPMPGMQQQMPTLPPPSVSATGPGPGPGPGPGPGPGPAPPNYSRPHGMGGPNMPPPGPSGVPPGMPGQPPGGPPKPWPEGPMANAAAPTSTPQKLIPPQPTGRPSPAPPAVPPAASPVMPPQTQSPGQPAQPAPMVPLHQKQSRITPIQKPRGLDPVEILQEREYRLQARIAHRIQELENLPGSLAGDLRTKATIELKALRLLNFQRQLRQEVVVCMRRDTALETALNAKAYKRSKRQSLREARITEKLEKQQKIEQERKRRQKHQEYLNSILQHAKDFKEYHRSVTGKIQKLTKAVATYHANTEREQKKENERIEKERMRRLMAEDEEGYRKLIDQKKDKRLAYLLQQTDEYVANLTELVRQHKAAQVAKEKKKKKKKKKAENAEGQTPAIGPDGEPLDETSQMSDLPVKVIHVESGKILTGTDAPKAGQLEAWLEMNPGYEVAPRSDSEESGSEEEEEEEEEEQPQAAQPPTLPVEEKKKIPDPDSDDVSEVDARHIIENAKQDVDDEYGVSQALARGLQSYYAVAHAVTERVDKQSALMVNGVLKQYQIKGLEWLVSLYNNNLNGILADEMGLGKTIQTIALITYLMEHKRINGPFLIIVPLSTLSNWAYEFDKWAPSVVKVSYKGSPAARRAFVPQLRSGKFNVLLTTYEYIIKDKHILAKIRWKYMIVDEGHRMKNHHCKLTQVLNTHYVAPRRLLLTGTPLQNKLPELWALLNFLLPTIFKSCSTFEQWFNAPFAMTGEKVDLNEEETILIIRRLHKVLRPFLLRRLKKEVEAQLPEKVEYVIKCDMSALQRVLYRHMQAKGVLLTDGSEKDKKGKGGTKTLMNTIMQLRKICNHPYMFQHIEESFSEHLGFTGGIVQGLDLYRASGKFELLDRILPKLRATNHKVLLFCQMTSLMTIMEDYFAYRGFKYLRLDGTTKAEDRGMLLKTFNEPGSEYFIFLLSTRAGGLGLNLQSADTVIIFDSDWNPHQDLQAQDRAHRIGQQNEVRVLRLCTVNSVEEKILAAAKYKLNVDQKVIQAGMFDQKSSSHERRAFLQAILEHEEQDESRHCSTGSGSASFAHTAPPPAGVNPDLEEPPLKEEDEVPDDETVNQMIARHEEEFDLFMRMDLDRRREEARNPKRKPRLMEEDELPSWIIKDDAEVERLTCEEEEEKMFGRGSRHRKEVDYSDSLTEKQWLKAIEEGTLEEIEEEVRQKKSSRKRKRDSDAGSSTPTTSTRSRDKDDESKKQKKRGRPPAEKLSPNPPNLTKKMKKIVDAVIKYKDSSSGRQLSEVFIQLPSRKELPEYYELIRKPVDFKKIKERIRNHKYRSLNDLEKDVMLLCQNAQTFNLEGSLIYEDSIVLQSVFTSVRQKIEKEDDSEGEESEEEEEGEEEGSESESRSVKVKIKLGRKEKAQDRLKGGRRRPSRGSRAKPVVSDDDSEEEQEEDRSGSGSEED

How the values were obtained:
[1] = biological target: SMARCA4 (mouse (endogenous in KP^f/fC tumors)) (UniProt Q3TKT4); experiment: proximity ligation; DuoLink PLA (rabbit MINUS and goat PLUS probes, amplification 2 hours) with antibodies against FOXA1, SMARCD3 and SMARCA4 on KP^f/fC mouse pancreatic tumor tissue; also on primary CD133+ KP^f/fC tumor cells
[2] = biological target: SMARCD3 (mouse (endogenous in KP^f/fC tumors and cell lines)) (UniProt Q6P9Z1); experiment: as above
SMARCD3-FLAG = SMARCD3-FLAG (UniProt Q6STE5); experiment: co-IP; 293T cells with lentiviral FOXA1-V5 and transfected SMARCD3-FLAG or empty GFP vector; 500 ug nuclear lysate on FLAG magnetic beads overnight at 4 C in high stringency buffer, eluted with FLAG peptide; blots with anti-FLAG, anti-V5, anti-SMARCA4

binding [1]: binds
binding [2]: binds
Molecule: FOXA1 (from UniProt P35582 1-468)

binding (SMARCD3-FLAG): binds
Molecule: SMARCA4 (from UniProt P51532 1-1647)

binding (SMARCD3-FLAG): binds
B1: FOXA1-V5 (protein, UniProt P55317 1-472)
chain: MLGTVKMEGHETSDWNSYYADTQEAYSSVPVSNMNSGLGSMNSMNTYMTMNTMTTSGNMTPASFNMSYANPGLGAGLSPGAVAGMPGGSAGAMNSMTAAGVTAMGTALSPSGMGAMGAQQAASMNGLGPYAAAMNPCMSPMAYAPSNLGRSRAGGGGDAKTFKRSYPHAKPPYSYISLITMAIQQAPSKMLTLSEIYQWIMDLFPYYRQNQQRWQNSIRHSLSFNDCFVKVARSPDKPGKGSYWTLHPDSGNMFENGCYLRRQKRFKCEKQPGAGGGGGSGSGGSGAKGGPESRKDPSGASNPSADSPLHRGVHGKTGQLEGAPAPGPAASPQTLDHSGATATGGASELKTPASSTAPPISSGPGALASVPASHPAHGLAPHESQLHLKGDPHYSFNHPFSINNLMSSSEQQHKLDFKAYEQALQYSPYGSTLPASLPLGSASVTTRSPIEPSALEPAYYQGVYSRPVLNTS
